Measurements published in PubChem BioAssay AID256 (DTP/NCI, 2004).
The list does not hold the whole screen: it gathers tests that were run many times, whatever their T/C, doses with no T/C, and many T/C values between a quarter and a half above the control. Further doses and runs are listed elsewhere. T/C is the treated group as % of the vehicle group. Some doses have a count of surviving animals in place of a T/C: the source holds a T/C of zero for them, seemingly a mark for toxic or unscored doses. Some doses without a T/C left all or most animals alive at the check, yet need not have been tolerated: the source hardly ever lists a survival T/C far under the control, and the zero likely stands for such cases as well. Counts of survivors are from the toxicity check (mostly the fifth day) where no day follows; animals may have died later. Schedule codes are those of the source, taken here to give the interval after Q, in days (D) or hours (H), and the number of doses after X. For survival time, this PubChem deposit counts one and a half times the control or more as active, and values a quarter to a half above the control carry no call in these data; other NCI protocols may use other cut-offs.

Test system: CD2F1 mice, L1210 leukemia ip, survival T/C
Assay: NCI In Vivo Anticancer Drug Screen. Data for tumor model L1210 Leukemia (intraperitoneal) in CD2F1 (CDF1) mice
Conditions: higher T/C = longer survival
In short: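 Each value reflects a quotient of treated over vehicle control outcomes in mice with a transplanted tumor.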

[1] = T/C endpoint: mean survival time, dose: 100.0 mg/kg/injection, schedule: Q01DX009 (ip), vehicle: saline with Tween-80
[2] = T/C endpoint: mean survival time, dose: 200.0 mg/kg/injection, schedule: Q01DX009 (ip), vehicle: saline with Tween-80
[3] = T/C endpoint: mean survival time, dose: 400.0 mg/kg/injection, schedule: Q01DX001 (ip), vehicle: saline with Tween-80
[4] = T/C endpoint: mean survival time, dose: 400.0 mg/kg/injection, schedule: Q01DX009 (ip), vehicle: saline with Tween-80
[5] = T/C endpoint: mean survival time, dose: 400.0 mg/kg/injection, schedule: Q04DX002 (ip), vehicle: saline with Tween-80

For N#CCCOP(=O)(N1CC1)N1CC1, which T/C (T/C endpoint: mean survival time, dose: 16.0 mg/kg/injection, schedule: Q01DX009 (ip), vehicle: water) is on record?
The T/C was 139 % of control.

And the T/C (T/C endpoint: mean survival time, dose: 32.0 mg/kg/injection, schedule: Q01DX009 (ip), vehicle: water)?
The T/C was 131 % of control.

And the T/C (T/C endpoint: mean survival time, dose: 62.5 mg/kg/injection, schedule: Q01DX001 (ip), vehicle: Klucel (hydroxypropylcellulose) (HPC))?
The T/C was 145 % of control.

What about the survivor count (T/C endpoint: mean survival time, dose: 125.0 mg/kg/injection, schedule: Q01DX001 (ip), vehicle: Klucel (hydroxypropylcellulose) (HPC)) of the same compound?
Its survivor count is 2 of 6.

And the survivor count (T/C endpoint: mean survival time, dose: 250.0 mg/kg/injection, schedule: Q01DX001 (ip), vehicle: Klucel (hydroxypropylcellulose) (HPC))?
The survivor count was 0 of 6.

What about the survivor count (T/C endpoint: mean survival time, dose: 500.0 mg/kg/injection, schedule: Q01DX001 (ip), vehicle: Klucel (hydroxypropylcellulose) (HPC)) of the same compound?
The survivor count was 1 of 6.

And the survivor count (T/C endpoint: mean survival time, dose: 1000.0 mg/kg/injection, schedule: Q01DX001 (ip), vehicle: Klucel (hydroxypropylcellulose) (HPC))?
The survivor count was 0 of 6.

For N#Cc1cccc[n+]1Cc1ccc([N+](=O)[O-])cc1, which survivor count [1] is on record?
The survivor count was 3 of 6.

How did the survivor count [2] turn out when O=C(Nc1ccc2cc(S(=O)(=O)O)ccc2c1)c1ccc(N=Nc2c(S(=O)(=O)O)cc3cc(S(=O)(=O)O)cc(NC(=O)c4ccccc4)c3c2O)cc1 was run?
Its survivor count is 3 of 6.

With CCOC(=O)c1cc(C[N+](C)(C)C)oc1C as the compound, how does the survivor count (T/C endpoint: mean survival time, dose: 200.0 mg/kg/injection, schedule: Q01DX001 (ip), vehicle: saline with Tween-80) read?
Its survivor count is 0 of 6.

And the survivor count [3]?
Its survivor count is 0 of 6.

With CSc1ccc(C(c2ccc(SC)cc2)C(Cl)(Cl)Cl)cc1 as the compound, how does the survivor count (T/C endpoint: mean survival time, dose: 200.0 mg/kg/injection, schedule: Q04DX003 (ip), vehicle: saline with Tween-80) read?
Its survivor count is 6 of 6.

How did the survivor count (T/C endpoint: mean survival time, dose: 100.0 mg/kg/injection, schedule: Q04DX003 (ip), vehicle: other) turn out when Cc1ccc(OCCOc2ccc([N+](=O)[O-])cc2)cc1 was run?
The survivor count was 3 of 6.

How did the T/C (T/C endpoint: mean survival time, dose: 50.0 mg/kg/injection, schedule: Q01DX009 (ip), vehicle: other) turn out when CN(C)N=Nc1c(F)cccc1F was run?
The T/C was 144 % of control.

What about the T/C [1] of the same compound?
The T/C was 128 % of control.

And the survivor count (T/C endpoint: mean survival time, dose: 200.0 mg/kg/injection, schedule: Q01DX009 (ip), vehicle: other)?
Its survivor count is 4 of 6.

What about the survivor count [2] of the same compound?
The survivor count was 4 of 6.

Which survivor count (T/C endpoint: mean survival time, dose: 400.0 mg/kg/injection, schedule: Q04DX003 (ip), vehicle: saline) does the source give for CCCCCCC(C)c1cc(C)c(O)c(CN(C)C)c1 (configuration not stated) here?
Its survivor count is 0 of 6.

How did the survivor count [1] turn out when CC(=O)CC(=O)Nc1ccccc1 was run?
Its survivor count is 3 of 6.

What about the survivor count [2] of the same compound?
The survivor count was 0 of 6.

And the survivor count [4]?
The survivor count was 0 of 6.

For CC(=O)Oc1ccc(Cl)cc1, which survivor count [4] is on record?
The survivor count was 0 of 6.

CC[C@@H](O)C[C@H]1CCC[C@@]2(C[C@@H]3OC(=O)/C=C/[C@@](C)(O)[C@@H](O)[C@H](C)[C@@H](O)[C@H](OC4CCC(N(C)C)C(C)O4)[C@@H](O)[C@](C)(O)CCCCC/C=C/[C@@H]4CC(C)(C)O[C@@]4(O)C[C@H](O2)[C@H]3C)O1 (some centres not stated) was tested. Which survivor count (T/C endpoint: mean survival time, dose: 0.5 mg/kg/injection, schedule: Q01DX009 (ip), vehicle: saline) did it give?
The survivor count was 2 of 6.

And the survivor count (T/C endpoint: mean survival time, dose: 1.0 mg/kg/injection, schedule: Q01DX009 (ip), vehicle: saline)?
Its survivor count is 0 of 6.

With CC(=O)n1c(COS(C)(=O)=O)nc2ccccc21 as the compound, how does the survivor count (T/C endpoint: mean survival time, dose: 100.0 mg/kg/injection, schedule: Q01DX001 (ip), vehicle: carboxymethylcellulose (CMC)) read?
The survivor count was 1 of 4.

Which survivor count [3] does the source give for O=[N+]([O-])c1cccc(/C=C/C2(CCl)OCCO2)c1 here?
Its survivor count is 0 of 6.

Which T/C (T/C endpoint: mean survival time, dose: 5.3 mg/kg/injection, schedule: Q01DX001 (ip), vehicle: other) does the source give for ONc1nc(NO)c2[nH]cnc2n1 here?
The T/C was 132 % of control.

And the T/C (T/C endpoint: mean survival time, dose: 19.0 mg/kg/injection, schedule: Q01DX001 (ip), vehicle: other)?
Its T/C is 144 % of control.

For Cc1nc(-c2cccc(Cl)c2)oc1-c1ccccc1, which T/C [5] is on record?
Its T/C is 125 % of control.

O=C(O)Cc1cccc2c(=O)cc(-c3ccccc3)oc12 was tested. Which T/C (T/C endpoint: median survival time, dose: 50.0 mg/kg/injection, schedule: Q01DX009 (ip), vehicle: suspension in saline) did it give?
Its T/C is 135 % of control.

What about the T/C (T/C endpoint: median survival time, dose: 67.0 mg/kg/injection, schedule: Q01DX009 (ip), vehicle: saline with Tween-80) of the same compound?
The T/C was 133 % of control.

What about the T/C (T/C endpoint: median survival time, dose: 100.0 mg/kg/injection, schedule: Q01DX009 (ip), vehicle: suspension in saline) of the same compound?
Its T/C is 147 % of control.

What about the survivor count (T/C endpoint: median survival time, dose: 200.0 mg/kg/injection, schedule: Q01DX009 (ip), vehicle: suspension in saline) of the same compound?
The survivor count was 4 of 6.

How did the survivor count (T/C endpoint: mean survival time, dose: 2.0 mg/kg/injection, schedule: Q04DX003 (ip), vehicle: saline with Tween-80) turn out when CCCC[CH2][Pb]([CH2]CCCC)([CH2]CCCC)[O]C(C)=O was run?
The survivor count was 5 of 6.

What about the survivor count (T/C endpoint: mean survival time, dose: 4.0 mg/kg/injection, schedule: Q04DX003 (ip), vehicle: saline with Tween-80) of the same compound?
Its survivor count is 4 of 6.

What does the source list for CC1=C(NNS(=O)(=O)c2ccc(C)cc2)CCCC1=O?
survivor count (T/C endpoint: mean survival time, dose: 200.0 mg/kg/injection, schedule: Q04DX002 (ip), vehicle: saline with Tween-80): 3 of 3; survivor count [5]: 1 of 3

Which survivor count (T/C endpoint: mean survival time, dose: 100.0 mg/kg/injection, schedule: Q04DX002 (ip), vehicle: Klucel (hydroxypropylcellulose) (HPC)) does the source give for O=C(NCCBr)Nc1ccccc1 here?
Its survivor count is 3 of 3.

What about the survivor count (T/C endpoint: mean survival time, dose: 200.0 mg/kg/injection, schedule: Q04DX002 (ip), vehicle: Klucel (hydroxypropylcellulose) (HPC)) of the same compound?
The survivor count was 3 of 3.

And the survivor count (T/C endpoint: mean survival time, dose: 400.0 mg/kg/injection, schedule: Q04DX002 (ip), vehicle: Klucel (hydroxypropylcellulose) (HPC))?
Its survivor count is 3 of 3.

Which survivor count (T/C endpoint: mean survival time, dose: 200.0 mg/kg/injection, schedule: Q01DX009 (ip), vehicle: saline sonified) does the source give for COc1cc2c(cc1OC)C(Cc1ccccc1)=NCC2 here?
Its survivor count is 1 of 6.

What about the survivor count (T/C endpoint: mean survival time, dose: 400.0 mg/kg/injection, schedule: Q04DX003 (ip), vehicle: saline with Tween-80) of the same compound?
Its survivor count is 0 of 6.
